Measurements as given in the supplement of paper PMC10849652.
This is one part of the list.

Amino acid sequences for entries named in this document (tags omitted). A change or cut given only in a name is not applied to a line headed by its entry.
UniProt Q8WXF1: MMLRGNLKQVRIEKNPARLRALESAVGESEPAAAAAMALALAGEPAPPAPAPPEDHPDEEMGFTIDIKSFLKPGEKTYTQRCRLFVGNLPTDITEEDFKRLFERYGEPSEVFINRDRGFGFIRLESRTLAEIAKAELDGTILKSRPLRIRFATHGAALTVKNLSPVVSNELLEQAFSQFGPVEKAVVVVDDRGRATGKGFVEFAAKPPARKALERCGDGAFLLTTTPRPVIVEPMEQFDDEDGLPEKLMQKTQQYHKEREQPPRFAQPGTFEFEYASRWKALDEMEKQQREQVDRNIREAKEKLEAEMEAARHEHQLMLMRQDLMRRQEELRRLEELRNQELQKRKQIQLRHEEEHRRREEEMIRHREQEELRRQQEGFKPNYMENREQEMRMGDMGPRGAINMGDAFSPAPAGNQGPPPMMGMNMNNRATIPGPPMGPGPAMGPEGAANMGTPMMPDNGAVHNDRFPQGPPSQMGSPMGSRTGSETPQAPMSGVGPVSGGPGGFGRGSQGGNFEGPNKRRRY
UniProt Q6GMV3: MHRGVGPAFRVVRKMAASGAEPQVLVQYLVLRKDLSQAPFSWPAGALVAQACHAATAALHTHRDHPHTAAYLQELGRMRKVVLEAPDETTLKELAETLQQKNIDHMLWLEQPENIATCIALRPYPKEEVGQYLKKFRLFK
UniProt Q7Z6K3: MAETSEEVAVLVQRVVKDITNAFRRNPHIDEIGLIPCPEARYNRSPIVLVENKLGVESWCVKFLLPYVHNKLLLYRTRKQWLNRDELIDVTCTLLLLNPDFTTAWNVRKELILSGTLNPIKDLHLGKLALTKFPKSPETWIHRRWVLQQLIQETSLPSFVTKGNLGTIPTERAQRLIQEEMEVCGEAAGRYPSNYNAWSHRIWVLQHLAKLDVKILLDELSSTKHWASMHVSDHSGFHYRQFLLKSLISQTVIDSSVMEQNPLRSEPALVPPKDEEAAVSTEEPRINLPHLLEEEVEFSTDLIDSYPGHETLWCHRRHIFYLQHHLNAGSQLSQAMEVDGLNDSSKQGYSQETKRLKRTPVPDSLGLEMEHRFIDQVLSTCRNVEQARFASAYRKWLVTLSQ
UniProt P26599: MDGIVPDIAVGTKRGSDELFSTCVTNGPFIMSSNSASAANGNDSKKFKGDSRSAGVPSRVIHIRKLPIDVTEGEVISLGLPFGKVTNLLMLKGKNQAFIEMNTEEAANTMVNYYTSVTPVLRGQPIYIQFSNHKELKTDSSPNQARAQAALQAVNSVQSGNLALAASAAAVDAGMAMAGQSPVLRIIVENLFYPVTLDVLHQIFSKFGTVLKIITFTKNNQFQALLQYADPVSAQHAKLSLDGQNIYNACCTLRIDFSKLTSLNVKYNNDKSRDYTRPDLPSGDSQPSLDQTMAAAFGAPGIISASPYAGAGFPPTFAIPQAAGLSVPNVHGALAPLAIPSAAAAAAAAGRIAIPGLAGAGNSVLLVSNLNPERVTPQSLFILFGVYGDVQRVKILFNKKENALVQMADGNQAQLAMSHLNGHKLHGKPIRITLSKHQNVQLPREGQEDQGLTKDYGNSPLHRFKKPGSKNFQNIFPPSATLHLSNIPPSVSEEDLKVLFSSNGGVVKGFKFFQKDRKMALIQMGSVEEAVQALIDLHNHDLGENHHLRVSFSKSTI
UniProt O95997: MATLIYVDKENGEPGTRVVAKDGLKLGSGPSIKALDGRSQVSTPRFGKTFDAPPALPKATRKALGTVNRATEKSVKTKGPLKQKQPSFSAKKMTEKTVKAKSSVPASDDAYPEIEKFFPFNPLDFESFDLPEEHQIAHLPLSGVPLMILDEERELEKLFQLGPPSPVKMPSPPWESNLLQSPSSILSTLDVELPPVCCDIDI
UniProt Q00577: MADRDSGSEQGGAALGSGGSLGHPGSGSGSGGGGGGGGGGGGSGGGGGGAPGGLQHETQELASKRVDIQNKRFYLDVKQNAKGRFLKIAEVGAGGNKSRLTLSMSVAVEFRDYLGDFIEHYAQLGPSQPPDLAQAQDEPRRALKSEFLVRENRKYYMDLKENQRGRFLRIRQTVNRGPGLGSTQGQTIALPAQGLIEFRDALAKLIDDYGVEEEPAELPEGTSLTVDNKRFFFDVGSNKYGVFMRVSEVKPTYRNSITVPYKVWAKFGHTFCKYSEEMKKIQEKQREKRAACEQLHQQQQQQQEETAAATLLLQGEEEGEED
UniProt Q93096: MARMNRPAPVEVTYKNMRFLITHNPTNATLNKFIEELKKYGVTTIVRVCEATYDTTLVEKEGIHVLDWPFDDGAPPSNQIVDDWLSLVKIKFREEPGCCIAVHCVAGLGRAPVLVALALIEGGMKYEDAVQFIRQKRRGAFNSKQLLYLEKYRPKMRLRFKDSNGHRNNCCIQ
UniProt Q3MIT2: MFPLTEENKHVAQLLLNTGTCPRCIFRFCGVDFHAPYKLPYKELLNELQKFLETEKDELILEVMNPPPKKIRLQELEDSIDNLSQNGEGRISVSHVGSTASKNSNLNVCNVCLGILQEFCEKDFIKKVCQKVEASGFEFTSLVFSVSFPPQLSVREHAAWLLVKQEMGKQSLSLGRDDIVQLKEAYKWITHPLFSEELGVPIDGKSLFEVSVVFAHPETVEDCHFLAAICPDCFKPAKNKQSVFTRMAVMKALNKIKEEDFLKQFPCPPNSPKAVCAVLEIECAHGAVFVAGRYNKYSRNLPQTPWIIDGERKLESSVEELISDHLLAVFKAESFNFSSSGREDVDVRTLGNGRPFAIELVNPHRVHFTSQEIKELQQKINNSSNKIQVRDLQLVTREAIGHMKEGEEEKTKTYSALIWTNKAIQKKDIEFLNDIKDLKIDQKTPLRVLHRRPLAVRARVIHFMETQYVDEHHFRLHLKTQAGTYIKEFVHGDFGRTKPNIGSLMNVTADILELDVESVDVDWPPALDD
UniProt Q14289, whole entry, looked up: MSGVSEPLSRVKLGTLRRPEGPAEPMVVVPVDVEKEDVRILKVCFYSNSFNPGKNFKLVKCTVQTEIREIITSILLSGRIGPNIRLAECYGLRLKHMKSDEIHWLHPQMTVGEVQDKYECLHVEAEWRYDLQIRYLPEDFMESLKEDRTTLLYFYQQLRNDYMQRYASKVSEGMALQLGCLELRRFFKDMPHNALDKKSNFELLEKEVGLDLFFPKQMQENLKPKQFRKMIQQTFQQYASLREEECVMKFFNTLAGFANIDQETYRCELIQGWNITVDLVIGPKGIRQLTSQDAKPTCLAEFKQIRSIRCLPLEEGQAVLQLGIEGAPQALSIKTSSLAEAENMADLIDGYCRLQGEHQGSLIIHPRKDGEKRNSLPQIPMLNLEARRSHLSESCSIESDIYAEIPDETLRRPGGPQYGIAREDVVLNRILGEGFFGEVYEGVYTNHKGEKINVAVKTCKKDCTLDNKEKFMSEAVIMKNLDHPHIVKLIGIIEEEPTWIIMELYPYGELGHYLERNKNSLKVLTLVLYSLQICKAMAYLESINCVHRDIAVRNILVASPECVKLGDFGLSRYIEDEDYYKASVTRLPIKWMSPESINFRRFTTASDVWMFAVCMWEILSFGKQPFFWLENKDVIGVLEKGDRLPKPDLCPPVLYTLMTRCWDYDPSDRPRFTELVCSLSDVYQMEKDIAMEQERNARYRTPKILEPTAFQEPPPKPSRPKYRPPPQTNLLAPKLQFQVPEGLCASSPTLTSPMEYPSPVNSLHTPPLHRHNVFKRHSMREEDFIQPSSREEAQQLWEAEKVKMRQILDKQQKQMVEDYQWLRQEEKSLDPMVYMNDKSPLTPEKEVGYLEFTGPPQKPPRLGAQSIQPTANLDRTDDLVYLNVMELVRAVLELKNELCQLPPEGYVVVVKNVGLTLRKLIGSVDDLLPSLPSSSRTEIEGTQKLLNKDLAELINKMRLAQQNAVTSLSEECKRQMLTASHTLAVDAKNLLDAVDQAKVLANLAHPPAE
UniProt P49720: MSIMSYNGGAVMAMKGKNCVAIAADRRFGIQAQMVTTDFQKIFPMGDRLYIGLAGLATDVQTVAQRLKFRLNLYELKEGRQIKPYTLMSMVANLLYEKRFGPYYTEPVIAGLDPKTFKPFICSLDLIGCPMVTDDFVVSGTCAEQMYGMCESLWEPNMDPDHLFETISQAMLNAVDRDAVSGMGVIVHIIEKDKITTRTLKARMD
UniProt P08575: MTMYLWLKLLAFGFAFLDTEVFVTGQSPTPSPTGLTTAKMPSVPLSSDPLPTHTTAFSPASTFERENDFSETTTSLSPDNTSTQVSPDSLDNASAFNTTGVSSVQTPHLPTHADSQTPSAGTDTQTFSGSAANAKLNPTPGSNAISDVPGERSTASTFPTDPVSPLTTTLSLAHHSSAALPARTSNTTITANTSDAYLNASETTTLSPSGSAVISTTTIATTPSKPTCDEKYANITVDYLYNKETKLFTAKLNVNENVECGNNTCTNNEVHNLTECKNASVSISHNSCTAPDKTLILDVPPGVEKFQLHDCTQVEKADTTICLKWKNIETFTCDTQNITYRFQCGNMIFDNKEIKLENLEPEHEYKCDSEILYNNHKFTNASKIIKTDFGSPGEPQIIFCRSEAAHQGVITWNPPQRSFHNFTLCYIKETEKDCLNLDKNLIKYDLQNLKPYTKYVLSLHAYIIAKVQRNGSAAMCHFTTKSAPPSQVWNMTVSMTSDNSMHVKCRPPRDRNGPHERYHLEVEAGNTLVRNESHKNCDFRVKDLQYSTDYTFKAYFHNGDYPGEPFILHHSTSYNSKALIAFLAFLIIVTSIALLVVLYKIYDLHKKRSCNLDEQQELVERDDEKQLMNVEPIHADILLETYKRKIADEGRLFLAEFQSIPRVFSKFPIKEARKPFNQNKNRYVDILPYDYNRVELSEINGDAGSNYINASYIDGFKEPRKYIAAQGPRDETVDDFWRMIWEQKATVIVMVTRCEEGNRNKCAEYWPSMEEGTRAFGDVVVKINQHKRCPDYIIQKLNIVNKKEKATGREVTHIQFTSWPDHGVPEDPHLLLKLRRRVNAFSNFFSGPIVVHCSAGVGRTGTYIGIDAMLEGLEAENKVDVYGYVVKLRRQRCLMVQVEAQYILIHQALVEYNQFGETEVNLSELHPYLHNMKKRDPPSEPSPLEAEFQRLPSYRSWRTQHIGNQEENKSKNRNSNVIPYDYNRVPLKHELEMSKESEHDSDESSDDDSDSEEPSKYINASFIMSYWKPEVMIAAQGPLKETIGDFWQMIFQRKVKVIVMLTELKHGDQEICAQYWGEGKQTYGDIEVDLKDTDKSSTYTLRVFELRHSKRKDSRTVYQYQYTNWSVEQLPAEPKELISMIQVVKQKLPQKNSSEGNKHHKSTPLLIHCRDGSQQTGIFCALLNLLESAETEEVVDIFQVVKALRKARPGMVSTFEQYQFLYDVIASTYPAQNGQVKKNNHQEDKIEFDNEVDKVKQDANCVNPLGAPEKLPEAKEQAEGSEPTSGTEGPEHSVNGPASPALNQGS
UniProt P53801: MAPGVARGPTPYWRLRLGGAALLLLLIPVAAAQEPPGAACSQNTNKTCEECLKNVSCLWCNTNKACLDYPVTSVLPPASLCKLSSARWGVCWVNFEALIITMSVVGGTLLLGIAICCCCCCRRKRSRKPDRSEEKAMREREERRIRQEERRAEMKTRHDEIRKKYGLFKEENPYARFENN
UniProt Q9Y6M0: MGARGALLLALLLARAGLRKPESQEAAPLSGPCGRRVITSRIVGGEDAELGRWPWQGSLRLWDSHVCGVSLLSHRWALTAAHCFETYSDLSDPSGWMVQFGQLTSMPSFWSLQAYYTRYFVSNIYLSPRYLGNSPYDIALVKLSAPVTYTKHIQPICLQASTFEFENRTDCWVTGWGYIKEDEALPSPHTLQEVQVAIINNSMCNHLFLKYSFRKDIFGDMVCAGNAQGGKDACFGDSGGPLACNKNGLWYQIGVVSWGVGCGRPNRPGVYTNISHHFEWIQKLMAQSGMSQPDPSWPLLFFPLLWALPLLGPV
UniProt Q8TBF2: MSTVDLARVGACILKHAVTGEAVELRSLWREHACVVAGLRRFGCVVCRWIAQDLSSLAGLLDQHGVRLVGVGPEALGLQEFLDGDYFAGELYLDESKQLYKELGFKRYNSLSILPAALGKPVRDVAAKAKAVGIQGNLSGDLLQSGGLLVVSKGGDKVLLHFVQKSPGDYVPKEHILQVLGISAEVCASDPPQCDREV
UniProt O00232: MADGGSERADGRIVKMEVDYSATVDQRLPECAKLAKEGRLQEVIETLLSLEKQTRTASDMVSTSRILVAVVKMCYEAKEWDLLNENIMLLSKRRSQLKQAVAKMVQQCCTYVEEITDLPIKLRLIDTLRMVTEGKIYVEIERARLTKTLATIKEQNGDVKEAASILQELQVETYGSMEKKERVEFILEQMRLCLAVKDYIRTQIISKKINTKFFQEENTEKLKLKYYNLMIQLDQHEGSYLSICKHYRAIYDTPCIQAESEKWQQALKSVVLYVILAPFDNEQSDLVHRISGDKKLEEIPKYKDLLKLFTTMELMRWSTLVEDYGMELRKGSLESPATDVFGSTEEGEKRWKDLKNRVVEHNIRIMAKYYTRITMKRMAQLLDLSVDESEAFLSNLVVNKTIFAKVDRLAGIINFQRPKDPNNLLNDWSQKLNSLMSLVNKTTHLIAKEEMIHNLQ

Experiments:
Test in all cases: log2 fold change, soluble protein after heating vs DMSO (PISA); higher = thermal stabilisation; K562 lysate, 10 uM; active = over 0.2 and 3.5 SD of the protein, either way, in both replicates (recomputed)
vemurafenib = compound: CCCS(=O)(=O)Nc1ccc(F)c(C(=O)c2c[nH]c3ncc(-c4ccc(Cl)cc4)cc23)c1F [vemurafenib]
In short: (§1)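 Log-two fold change in thermal stability relative to solvent controls is reported from duplicates. For each sample, crude K562 extract from dounce-homogenised pellets in PBS pH 7.4 with 1 mM MgCl2, at 1 mg/mL protein, was treated with 10 μM compound for 30 min. Aliquots heated for 3 min across 48°C-58°C were pooled, brought to 0.5% NP-40 at 4°C and cleared at 21,000xg for 90 min. The supernatant was quantified by TMTpro 16plex LC-MS/MS with channel sums equalised.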

[1] = compound: CCCS(=O)(=O)Nc1ccc(F)c(C(=O)c2c[nH]c3ncc(Cl)cc23)c1F
In short: as §1

barasertib = compound: CCN(CCCOc1ccc2c(Nc3cc(CC(=O)Nc4cccc(F)c4)[nH]n3)ncnc2c1)CCOP(=O)(O)O [barasertib]
In short: as §1

[2] = compound: CC[C@@H]1C(=O)N(C)c2cnc(Nc3ccc(C(=O)NC4CCN(C)CC4)cc3OC)nc2N1C1CCCC1
In short: as §1

volasertib = compound: CC[C@@H]1C(=O)N(C)c2cnc(Nc3ccc(C(=O)N[C@H]4CC[C@H](N5CCN(CC6CC6)CC5)CC4)cc3OC)nc2N1C(C)C [volasertib]
In short: as §1

[3] = compound: CCn1c(C(=O)N(C2CC2)C2CC2)cc2c3c(ncn3C)c(Nc3cc(C)n(C)n3)nc21
In short: as §1

[4] = compound: CCn1cc(-c2ccnc3[nH]c(-c4cccc(CN(C)C)c4)cc23)c(-c2ccc(NC(=O)N(C)C)cc2)n1
In short: as §1

[5] = compound: CN1CCC(CNc2ccc3ncc(-c4cccc(OC(F)(F)F)c4)n3n2)CC1
In short: as §1

saracatinib = compound: CN1CCN(CCOc2cc(OC3CCOCC3)c3c(Nc4c(Cl)ccc5c4OCO5)ncnc3c2)CC1 [saracatinib]
In short: as §1

sotrastaurin = compound: CN1CCN(c2nc(C3=C(c4c[nH]c5ccccc45)C(=O)NC3=O)c3ccccc3n2)CC1 [sotrastaurin]
In short: as §1

Target | log2 fold change (vemurafenib) | log2 fold change [1] | log2 fold change (barasertib) | log2 fold change [2] | log2 fold change (volasertib) | log2 fold change [3] | log2 fold change [4] | log2 fold change [5] | log2 fold change (saracatinib) | log2 fold change (sotrastaurin)
PSPC1 (UniProt Q8WXF1) | inactive: -0.012 | inactive: 0.005 | inactive: 0.019 | inactive: 0.011 | inactive: 0.013 | inactive: -0.01 | inactive: 0.056 | inactive: -0.041 | inactive: 0.045 | inactive: -0.013
PTRHD1 (UniProt Q6GMV3) | inactive: -0.012 | inactive: 0 | inactive: 0.137 | inactive: 0.007 | inactive: 0.038 | inactive: 0.098 | inactive: 0.07 | inactive: -0.088 | inactive: 0.02 | inactive: -0.039
PTAR1 (UniProt Q7Z6K3) | inactive: -0.024 | inactive: 0.029 | inactive: -0.12 | inactive: 0.116 | inactive: 0.084 | inactive: -0.003 | inactive: -0.003 | inactive: 0.028 | inactive: -0.034 | inactive: -0.024
PTBP1 (UniProt P26599) | inactive: 0.031 | inactive: 0.039 | inactive: -0.009 | inactive: 0.018 | inactive: -0.013 | inactive: -0.025 | inactive: 0.036 | inactive: -0.013 | inactive: 0.008 | inactive: -0.016
PTTG1 (UniProt O95997) | inactive: -0.033 | inactive: 0.043 | inactive: -0.028 | inactive: 0.043 | inactive: -0.012 | inactive: 0.029 | inactive: 0.053 | inactive: -0.124 | inactive: 0.045 | inactive: -0.039
PURA (UniProt Q00577) | inactive: -0.124 | inactive: 0.007 | inactive: -0.067 | inactive: 0.122 | inactive: 0.031 | inactive: -0.011 | inactive: 0.244 | inactive: -0.014 | inactive: 0.016 | inactive: -0.027
PTP4A1 (UniProt Q93096) | inactive: -0.006 | inactive: -0.029 | inactive: -0.041 | inactive: 0.017 | inactive: 0.036 | inactive: 0.019 | inactive: 0.177 | inactive: -0.05 | inactive: 0.001 | inactive: 0
PUS10 (UniProt Q3MIT2) | inactive: 0.026 | inactive: 0.017 | inactive: -0.003 | inactive: 0.042 | inactive: 0.022 | inactive: -0.043 | inactive: 0.045 | inactive: -0.138 | inactive: -0.014 | inactive: 0.009
PRUNE1 (UniProt Q86TP1) | inactive: 0.036 | inactive: 0.017 | inactive: 0.013 | inactive: -0.023 | inactive: -0.002 | inactive: 0 | inactive: 0.011 | inactive: -0.013 | inactive: -0.001 | inactive: -0.012
PSMD5 (UniProt Q16401) | inactive: -0.012 | inactive: 0.001 | inactive: -0.016 | inactive: 0.021 | inactive: -0.015 | inactive: 0.03 | inactive: 0.021 | inactive: -0.02 | inactive: 0.012 | inactive: -0.005
PUS3 (UniProt Q9BZE2) | inactive: 0.083 | inactive: 0.036 | inactive: 0.074 | inactive: -0.058 | inactive: -0.007 | inactive: 0.071 | inactive: 0.193 | inactive: -0.195 | inactive: 0.018 | inactive: 0.052
PTK2B (UniProt Q14289) | inactive: 0.001 | inactive: -0.03 | inactive: -0.013 | inactive: 0.118 | inactive: 0.022 | inactive: -0.044 | inactive: 0.001 | inactive: 0.107 | inactive: 0.019 | inactive: 0.033
PSMB3 (UniProt P49720) | inactive: -0.005 | inactive: -0.018 | inactive: -0.079 | inactive: -0.021 | inactive: 0.043 | inactive: -0.055 | inactive: -0.024 | inactive: 0.089 | inactive: 0.001 | inactive: 0.015
PTDSS1 (UniProt P48651) | inactive: -0.111 | inactive: 0.003 | inactive: 0.06 | inactive: -0.002 | inactive: -0.084 | inactive: 0.05 | inactive: 0.011 | inactive: -0.041 | inactive: 0.049 | inactive: -0.002
PRPF8 (UniProt Q6P2Q9) | inactive: -0.008 | inactive: 0.005 | inactive: 0.021 | inactive: -0.007 | inactive: -0.025 | inactive: 0.026 | inactive: -0.059 | inactive: -0.036 | inactive: 0.012 | inactive: 0.032
PTPRA (UniProt P18433) | inactive: 0.013 | inactive: 0.029 | inactive: 0.057 | inactive: 0.028 | inactive: -0.043 | inactive: -0.019 | inactive: 0.052 | inactive: 0.013 | inactive: 0.014 | inactive: 0.015
PSMB5 (UniProt P28074) | inactive: -0.019 | inactive: -0.014 | inactive: -0.02 | inactive: 0.022 | inactive: 0.024 | inactive: -0.014 | inactive: -0.004 | inactive: 0.033 | inactive: -0.01 | inactive: 0.003
PTPN6 isoform 4 (UniProt P29350) | inactive: 0.02 | inactive: -0.089 | inactive: 0.081 | active: -0.487 | inactive: 0.014 | inactive: 0.026 | inactive: -0.038 | inactive: -0.024 | inactive: -0.046 | inactive: 0.006
PURB (UniProt Q96QR8) | inactive: -0.002 | inactive: -0.025 | inactive: -0.006 | inactive: -0.178 | inactive: 0.009 | inactive: 0.037 | inactive: 0.007 | inactive: 0.01 | inactive: 0.007 | inactive: -0.02
PVR (UniProt P15151) | inactive: 0.084 | inactive: -0.032 | inactive: -0.028 | inactive: 0.144 | inactive: -0.007 | inactive: -0.001 | inactive: -0.031 | inactive: 0.107 | inactive: -0.005 | inactive: 0.004
PRRC2B (UniProt Q5JSZ5) | inactive: 0.022 | inactive: -0.021 | inactive: -0.081 | inactive: 0.109 | inactive: -0.012 | inactive: 0.02 | inactive: 0.096 | inactive: -0.018 | inactive: 0.032 | inactive: 0
PTPRC (UniProt P08575) | inactive: 0.012 | inactive: -0.021 | inactive: -0.013 | inactive: 0.025 | inactive: 0.019 | inactive: 0.011 | inactive: -0.084 | inactive: 0.053 | inactive: 0.001 | inactive: 0.028
PTTG1IP (UniProt P53801) | inactive: 0.108 | inactive: -0.005 | inactive: -0.043 | inactive: 0.084 | inactive: -0.038 | inactive: 0.129 | inactive: -0.217 | inactive: 0.344 | inactive: -0.178 | inactive: 0.221
PRSS21 (UniProt Q9Y6M0) | inactive: 0.024 | inactive: 0.042 | inactive: -0.052 | inactive: -0.005 | inactive: 0.019 | inactive: -0.049 | inactive: -0.017 | inactive: 0.032 | inactive: -0.025 | inactive: 0.026
PRPSAP2 (UniProt O60256) | inactive: 0.003 | inactive: -0.008 | inactive: -0.039 | inactive: 0.031 | inactive: 0.015 | inactive: 0.001 | inactive: 0 | inactive: 0.087 | inactive: 0.053 | inactive: -0.011
PTGS1 isoform 6 (UniProt P23219) | inactive: 0.058 | inactive: 0.076 | inactive: 0.039 | inactive: 0.005 | inactive: -0.022 | inactive: -0.012 | active: -0.279 | inactive: 0.134 | inactive: -0.033 | inactive: 0.065
PRXL2B isoform 3 (UniProt Q8TBF2) | inactive: 0.011 | inactive: 0.041 | inactive: -0.097 | inactive: -0.006 | inactive: -0.021 | inactive: 0.036 | inactive: -0.131 | inactive: 0.109 | inactive: -0.008 | inactive: -0.015
PSMD12 (UniProt O00232) | inactive: -0.024 | inactive: -0.003 | inactive: 0.01 | inactive: -0.028 | inactive: -0.019 | inactive: 0.009 | inactive: 0.019 | inactive: -0.003 | inactive: 0.011 | inactive: 0.011

2 entries from above, in markdown:

| Target | log2 fold change (vemurafenib) | log2 fold change [1] | log2 fold change (barasertib) | log2 fold change [2] | log2 fold change (volasertib) | log2 fold change [3] | log2 fold change [4] | log2 fold change [5] | log2 fold change (saracatinib) | log2 fold change (sotrastaurin) |
| --- | --- | --- | --- | --- | --- | --- | --- | --- | --- | --- |
| PUS3 (UniProt Q9BZE2) | inactive: 0.083 | inactive: 0.036 | inactive: 0.074 | inactive: -0.058 | inactive: -0.007 | inactive: 0.071 | inactive: 0.193 | inactive: -0.195 | inactive: 0.018 | inactive: 0.052 |
| PTK2B (UniProt Q14289) | inactive: 0.001 | inactive: -0.03 | inactive: -0.013 | inactive: 0.118 | inactive: 0.022 | inactive: -0.044 | inactive: 0.001 | inactive: 0.107 | inactive: 0.019 | inactive: 0.033 |
